Measurements from “University of Dundee, Small-Polar-MMV Screening Library” (2021), ChEMBL document CHEMBL3988442.

Values are the deposited “Percent Effect”, in %. The record does not define 0% and 100%; most values in the screen are far below 50% and negative numbers occur (in some assays of this library far below -100). This is an unselected part of the compounds tested.

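Assay on Mycobacterium tuberculosis, filed only as a heat shock assay from Cornell; the read-out is not stated. The concentration is filed as 10 mM, unlikely as a test dose, so the dose is not known. Higher reads as stronger inhibition (inferred: compounds with an IC50 in retests scored well above the rest). Size under these conditions: about 69,000 compounds, about 930 of them at 50% or above in at least one test.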

compound | Percent Effect
CC(C)c1ncc2c(n1)CN(CC(=O)Nc1ccncc1)CC2 | -0.9898%
COc1cc(OC)cc(-c2noc(CN)n2)c1 | -30.16%
Cc1cccc(C(C)CNC(=O)N2CCOCC3(CCOCC3)C2)c1 (configuration not stated) | -4.424%
NCCc1n[nH]c(=O)n1-c1cccc2ccccc12 | 15.15%
COc1ccc(C)cc1CN1CCCC1Cn1nc(C)nc1C (configuration not stated) | 25.87%
COCCN(Cc1cccs1)C(=O)c1ccc(=O)n(C)c1 | -2.453%
CCOc1cccc(C(C(=O)O)N(C)Cc2cc(C)no2)c1 (configuration not stated) | -1.568%
CN1N=C(C(=O)N(Cc2ccco2)C2CCCC2)CCC1=O | 1.251%
CN(C)c1ccc(C(=O)N2CCCC2c2noc(C3CC3)n2)nn1 (configuration not stated) | -8.449%
CC1c2ncc(CN3CCN(C)CC3)n2CCN1Cc1cnn(C)c1.O=C(O)C(F)(F)F.O=C(O)C(F)(F)F.O=C(O)C(F)(F)F (configuration not stated) | -44.82%
O=C1COc2cc(C(=O)NCc3ccc(Cl)s3)ccc2N1 | -5.277%
Cn1c(CN2CCOCC2)nnc1C1CCCN(C(=O)CCC2CC2)C1 (configuration not stated) | -26.12%
CS(=O)(=O)c1ccc(CNC(=O)N2CCC(c3ccccc3)CC2)cc1 | 11.31%
Cn1cc(C2CCCN2C(=O)c2cnc(-c3cccs3)s2)cn1 (configuration not stated) | -22.04%
CCOc1ccccc1CNC(=O)N1CCC(Cc2cnn(C)c2)C1 (configuration not stated) | 13.22%
O=C(O)C(F)(F)F.O=C(O)C(F)(F)F.[H][C@@]12CCN(C3CCOCC3)C[C@]1([H])[C@@H](CNC(=O)c1ccncc1)OC2 | -20.76%
CC(OCc1ccccc1)C(=O)NCc1ccc(N(C)C)cc1 (configuration not stated) | -6.397%
Cc1nc(C(C)NC(=O)c2cn(CCC3CCCCC3)nn2)n[nH]1 (configuration not stated) | -1.827%
CCOC1CC2(CCN(Cc3nccn3C)CC2)C1.O=C(O)C(F)(F)F | -19.4%
CCCN1CCN(C(=O)c2cnn(-c3ccccc3F)c2)CC1 | -16.26%
Cc1cc(C)n(CC2CCCCN2CCC(=O)Nc2cc(C)on2)n1 (configuration not stated) | -8.207%
Cc1c(CNC2CCN(c3ccccc3OC(F)F)C2)cnn1C (configuration not stated) | 2.747%
CC(=O)N1CCC(N2CC[C@H](c3nc4cc(C)ccc4o3)C2)CC1 | -31.32%
Cc1noc(C)c1-c1ccc(C2CCCN2C(=O)c2cnn(C)c2)nc1 (configuration not stated) | -3.242%
Cc1ccc(CN2C(=O)CC[C@]23CC[C@@H](NCC2CCOC2)CC3)cc1.O=C(O)C(F)(F)F (some centres not stated) | -24.46%
CCN(CC)C1CCN(C(=O)c2cc3cc(C)cc(C)c3nc2C)CC1.Cl | 6.865%
Cc1noc(NC(=O)c2ccc(Br)cc2)n1 | 103.7%
Cc1cc(C)n(C2CN(Cc3noc(-c4ccccc4)n3)C2)n1 | 1.19%
COc1cccc(CN2C[C@@H](F)[C@@H](OCc3nc4cnccc4[nH]3)C2)c1 | -30.67%
CCN1CCCC(c2c(-c3ccccc3)ncn2CCc2c[nH]cn2)C1 (configuration not stated) | -20.32%
CC(C)Cc1ncc2c(n1)CN(c1cc(N)nc(N)n1)C2 | 11.78%
CCN(CC1COc2ccccc2O1)C(=O)C1=NN(C)C(=O)CC1 (configuration not stated) | -27.31%
CCc1ccccc1C(=O)N1CCCC1CC(=O)c1cnn(C)c1 (configuration not stated) | -14.75%
CCc1nc(C(=O)N(CC)CC(=O)Nc2cc(Cl)ccc2C)c[nH]1 | -22.12%
CS(=O)(=O)CCn1ccc(NC(=O)Cc2c[nH]c3ccccc23)n1 | 4.311%
CNC(=O)c1cccc(CN2CCN(c3ccncc3)CC2)c1 | -7.135%
CS(=O)(=O)N1CCCC12CCCN(S(=O)(=O)c1cc(F)cc(F)c1)C2 (configuration not stated) | -20.06%
CCCn1cnnc1CNC1CCCC1 | -29.84%
[H][C@@]12CS(=O)(=O)C[C@]1([H])N(Cc1ccc(F)c(C)c1)CCN2C(=O)C1CCC1 | -6.707%
O=C(c1cc2cc(I)ccc2[nH]1)N1CCC(Nc2cccnn2)CC1 | -5.719%
CC(C)n1nnnc1-c1ccc(NC(=O)CCC(F)(F)F)cc1F | -9.174%
CCn1c(N)nc2cc(C(=O)NCCc3sccc3C)cnc21 | 15.06%
COc1ccc(C(C)NCc2c[nH]nc2C)cc1OC.Cl (configuration not stated) | -6.984%
COC(=O)c1ccc(CNCc2ccn(C)n2)cc1 | -28.9%
CCOc1ccc(NC(=O)N2CCNC(=O)C2)c(C(F)(F)F)c1 | 10.67%
Cc1nn(C)c(C)c1OCC(=O)N1CCCc2c(F)ccc(F)c21 | -5.205%
CN(Cc1n[nH]c(=O)n1Cc1ccccc1F)S(C)(=O)=O | 0.6346%

For reference, 4 entries once more:

{"compound": "Cc1ccc(CN2C(=O)CC[C@]23CC[C@@H](NCC2CCOC2)CC3)cc1.O=C(O)C(F)(F)F", "stereo": "some centres not stated", "Percent Effect": -24.46}
{"compound": "O=C1COc2cc(C(=O)NCc3ccc(Cl)s3)ccc2N1", "Percent Effect": -5.277}
{"compound": "Cc1cc(C)n(CC2CCCCN2CCC(=O)Nc2cc(C)on2)n1", "stereo": "configuration not stated", "Percent Effect": -8.207}
{"compound": "CCOC1CC2(CCN(Cc3nccn3C)CC2)C1.O=C(O)C(F)(F)F", "Percent Effect": -19.4}